Where “and” joins values, the source holds several entries; their conditions need not be identical. Identical values can stand only once. The list shows a part of the results. The main result of the screen is listed elsewhere. These columns were measured beside it and carry no call. Compounds called inactive in the main read-out are mostly missing here. Potencies come from curve fits of mixed quality, noted in brackets.

The assay is described as follows: Cell signaling CRE-BLA (Fsk stim). The conditions noted are these: CHO CRE-bla reporter (cAMP response element driving beta-lactamase), forskolin EC10, beta-lactamase ratio; measured here: 460 nm blue channel. Summed up:
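CHO CRE-bla cells, overnight plating in Opti-MEM with 0.5% dialyzed FBS; cpd titration + EC10 NKH 477, 3 h 37 °C; CCF4 2 h RT; ex 405/em 460 vs 530 ratio → %Activity, AC50.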
Regarding `O=C1Nc2cc(C(=O)N3CCOCC3)ccc2SC1N1CCOCC1` (stereo not drawn), the AC50 – broadly, the concentration giving half of the maximal activity seen – is 25.1 µM [rising, single point].
For the molecule `CCCCCN=C(C)c1c(O)c2ccccc2oc1=O`, the concentration at half-maximal activity (AC50) is 12.6 µM [rising, single point].
`Cn1c(C(=O)N2CCc3ccccc32)cc2c(=O)n3ccccc3nc21`: the concentration at half-maximal activity (AC50) is 15.8 µM [rising, partial curve].
Next, `Cc1cc(NC(=O)COC(=O)C(Nc2ccc(C(F)(F)F)cc2Cl)C(C)C)no1` (stereo not drawn): 15.8 µM [falling, partial curve, poor fit].
`N#CCCn1c(=O)c(-c2ccccc2)nc2cnc(Oc3ccccc3)nc21`: the AC50 was 10 µM [rising, partial curve].
Consider `O=C(NCc1ccco1)c1sc(=S)n2c1[nH]c(=O)c1ccccc12`, for which the AC50 is 12.6 µM [falling, single point].
Next, `COc1ccc(-n2c(Cc3cccs3)nnc2SCC(=O)Nc2ccc3c(c2)OCCO3)cc1`: 3.98 µM [falling, full curve]; `CCOC(=O)N1CCN(C(=O)c2cnn3c(C(F)F)cc(-c4ccc(C)cc4)nc23)CC1`: 12.6 µM [rising, partial curve]; `Cn1c(=O)c(-c2ccc(Cl)cc2)nc2cnc(N3CCNCC3)nc21`: 2 µM [rising, full curve].
As for `CSc1nncc(-c2ccc(F)cc2)n1`, the AC50 was 15.8 µM [rising, partial curve].
With `O=C(CSc1nnc(-c2cccs2)n1-c1ccccc1)NCc1ccco1` the figure was 6.31 µM [falling, full curve, poor fit]; with `Cc1cc(-c2ccco2)n(-c2ccccc2)n1`, 3.16 µM [rising, full curve]; with `CCOC(=O)c1sc2nc3c(cc2c1N)COC(C)(C)C3`, 12.6 µM [rising, partial curve].
For the molecule `C=CCNc1oc(-c2cccc3ccccc23)nc1C#N`, the concentration at half-maximal activity (AC50) was 10 µM [rising, partial curve].
Next, `Cc1cc2c(cc1C)C(=O)NC(C)(C)C2`: 12.6 µM [falling, partial curve].
As to `Cn1c(=O)[nH]c(=O)c2c1nc(CN1CCN(c3ccccc3F)CC1)n2CCCc1ccccc1`, the half-maximal activity concentration (AC50) was 3.98 µM [rising, single point].
For `CCOC(=O)c1nnn(-c2nonc2-c2ccccc2)c1C`, the AC50 was 3.16 µM [falling, single point].
With `c1ccc(-c2nc3nc4ccccc4nc3n2Cc2ccco2)cc1` the figure was 10 µM [rising, single point]; with `COc1cc2c(cc1OC)CN(C(=O)CSc1nc3[nH]ncc3c(=O)n1-c1ccccc1)CC2`, 12.6 µM [rising, single point]; with `CCC(C)n1c(-c2cccs2)nc2nc3ccccc3nc21` (stereo not drawn), 10 µM [rising, partial curve].
Next, `CCN(CC)c1nc(N)nc(NS(=O)(=O)c2ccc(Cl)cc2)n1`: 5.01 µM [falling, single point]; `Cc1ccc2c(c1)C(O)(c1c(C)[nH]c3ccccc13)C(=O)N2` (stereo not drawn): 31.6 µM [falling, single point].
As to `CCC(Sc1nc(C)cc(=O)[nH]1)C(=O)Nc1ccc(Cl)cn1` (stereo not drawn), the concentration at half-maximal activity (AC50) is 10 µM [rising, partial curve].
Next, `CC(=O)Nc1nc2n(n1)C(c1ccccc1)C=C(c1ccccc1)N2` (stereo not drawn): 12.6 µM [rising, single point].
With `O=c1c(-c2cccs2)nc2cnc(Nc3ccccc3)nc2n1C[C@H]1CCCO1` the figure was 0.794 µM [rising, full curve].
For `O=c1cc(-c2ccccc2)[nH]c2[nH]n(-c3ccccc3)c(=O)c12`, the AC50 is 12.6 µM [falling, partial curve].
Next, `O=Cc1ccc(Cl)c(Cl)c1`: 1 µM [falling, full curve, poor fit].
For `C[C@@H](C(=O)NCc1cccc2ccccc12)[C@H]1C[C@]1(C)[C@H](NC(=O)OCc1ccccc1)c1ccccc1`, the half-maximal activity concentration (AC50) is 2 µM [falling, full curve, poor fit].
With `Clc1ccc(-c2nn3c(-c4ccncc4)nnc3s2)c(Cl)c1` the figure was 3.16 µM [falling, full curve, poor fit]; with `NC(=O)c1sc2nc3c(c(-c4cccs4)c2c1N)CCCC3`, 0.01 µM [falling, full curve, poor fit]; with `c1ccc(Nc2ncnc3ccc(-c4ccoc4)cc23)cc1`, 5.01 µM [falling, partial curve].
Consider `CCOC(=O)c1ccc(-n2[nH]c(-c3ccccc3)cc2=O)cc1`, for which the concentration at half-maximal activity (AC50) was 5.01 µM [falling, partial curve].
On to `Cc1ccc(C(C)C)c(OCC(=O)Nc2ccc(Cl)cn2)c1`, for which the AC50 is 10 µM [rising, partial curve].
On to `N[C@@H](Cn1cc(F)c(=O)[nH]c1=O)C(=O)O`, for which the AC50 is 0.02 µM [rising, full curve, poor fit].
Regarding `OC1CCN(c2ncnc3nc[nH]c23)CC1`, the AC50 was 12.6 µM [rising, single point].
Next, `CCn1c(SCC(=O)Nc2cc(NC(C)=O)ccc2OC)nnc1-c1ccccn1`: 7.94 µM [rising, partial curve, poor fit]; `c1ccc(-c2nc3ccccc3o2)nc1`: 0.316 µM [falling, partial curve].
Regarding `N#Cc1cc2c(nc1SCc1cccnc1)CCCCC2`, the AC50 was 12.6 µM [rising, partial curve].
In the case of `c1ccc(C(Cc2nc(-c3ccccn3)no2)c2ccccc2)cc1`, the half-maximal activity concentration (AC50) was 10 µM [falling, single point].
As for `C=CCn1c(=O)c(C(=O)NCCc2ccccc2)c(O)c2ccccc21`, the AC50 is 1.58 µM [rising, full curve, poor fit].
With `COc1cccc(-n2c(SCC(=O)Nc3cc(C)on3)nc3c([nH]c4ccccc43)c2=O)c1`, the half-maximal activity concentration (AC50) is 3.16 µM [rising, full curve].
With `COc1cccc(Cn2c(=O)c(-c3ccc(F)cc3)nc3cnc(OC)nc32)c1` the figure was 6.31 µM [rising, partial curve].
With `COc1ccc(Br)cc1C(=O)Nc1ccc(N2CCN(S(C)(=O)=O)CC2)cc1` the figure was 15.8 µM [rising, single point]; with `CN(C)CC(C)(C)NS(=O)(=O)c1ccc(Cl)cc1`, 0.00316 µM [falling, full curve, poor fit]; with `COc1ccc(C2CC(=O)Nc3ccccc3S2(=O)=O)cc1OC` (stereo not drawn), 0.0158 µM [falling, full curve, poor fit].
Next, `CCCCn1c(SCC(=O)Nc2cc(C)on2)nnc1-c1cccnc1`: 5.01 µM [falling, single point]; `Cc1cccc(-n2ncc3c(NCc4ccccc4)ncnc32)c1`: 10 µM [rising, partial curve].
As to `O=C(CCc1ccccc1)NCc1ccccn1`, the AC50 is 0.00316 µM [falling, full curve, poor fit].
With `CCOc1ccc(Nc2cc(C)nc(-n3nc(C)cc3C)n2)cc1` the figure was 5.01 µM [rising, partial curve]; with `Cc1ccccc1-n1c(=O)cc(N2CC(C)OC(C)C2)[nH]c1=O` (stereo not drawn), 0.00398 µM [falling, full curve]; with `COCCn1c(=N)c(C(=O)NCCc2ccc(OC)cc2)cc2c(=O)n3cccc(C)c3nc21`, 2.51 µM [rising, full curve].
Next, `CCOC(=O)C1CCN(C(c2cccs2)c2sc3nc(C)nn3c2O)CC1` (stereo not drawn): 5.01 µM [rising, partial curve]; `O=C(Nc1ccc(O)cc1)C1CC=CCC1` (stereo not drawn): 20 µM [falling, partial curve].
Take `Cc1nn(Cc2ccc(F)cc2)c(C)c1NC(=O)c1cc(-c2ccc3c(c2)OCO3)on1`: the AC50 is 7.94 µM [rising, partial curve].
Next, `Cn1nnnc1SCC(=O)Nc1ccccc1N1CCOCC1`: 3.98 µM [falling, partial curve].
Next, `CC1(C)CC(OC(=O)c2ccco2)CC(C)(C)N1O`: 3.16 µM [falling, partial curve, poor fit].
With `CC(C)NC(=O)C(C)n1cccc1C(=O)c1ccccc1` (stereo not drawn) the figure was 0.631 µM [falling, full curve, poor fit].
As to `CC(C)N(CCC(=O)c1ccc2ccccc2c1)Cc1ccccc1`, the AC50 is 15.8 µM [falling, partial curve] and 15.8 µM [falling, partial curve, poor fit].
As to `CCc1nc(-c2ccccc2O)n(-c2ccccc2)n1`, the AC50 was 10 µM [rising, single point].
With `O=c1c(-c2cccc(Cl)c2)nc2cncnc2n1Cc1ccccc1Cl` the figure was 12.6 µM [rising, partial curve]; with `CCCn1c(SCC(=O)N2CCN(c3ccccc3)CC2)nc2ccccc2c1=O`, 5.01 µM [falling, partial curve]; with `CC(Cc1ccccc1)C(=O)NCCc1c[nH]c2ccccc12` (stereo not drawn), 10 µM [falling, single point].
As to `CC1CCc2c(sc(NC(=O)c3noc4c3CCCC4)c2C(N)=O)C1` (stereo not drawn), the concentration at half-maximal activity (AC50) was 12.6 µM [rising, single point].
Consider `O=c1c(-c2cc(F)cc(F)c2)nc2cnc(N3CCNCC3)nc2n1Cc1ccc(F)cc1`, for which the concentration at half-maximal activity (AC50) was 1.26 µM [rising, full curve].
Regarding `Cc1cc(C(=O)CSc2nnc(-c3ccco3)o2)c(C)n1CC1COc2ccccc2O1` (stereo not drawn), the half-maximal activity concentration (AC50) is 7.94 µM [falling, partial curve].
With `c1nc2nc3c(c(N4CCOCC4)n2n1)CCCC3` the figure was 2.51 µM [rising, full curve]; with `O=C(CCCCn1c(=O)c2ccccc2n(CC(=O)NC2CCCC2)c1=O)NCc1ccco1`, 0.501 µM [falling, partial curve].
With `NC(=O)C1(N2CCCCC2)CCN(C(=O)c2cccn3c(=O)c4cc(Cl)ccc4nc23)CC1` the figure was 15.8 µM [rising, partial curve].

Source of the values: PubChem BioAssay AID662 (National Center for Advancing Translational Sciences (NCATS), 2007).
